Data as given in PubChem BioAssay AID1224826 (NIAID, 2016).

Screen: 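Knock-downs that raise or lower Tnf reporter signal after endotoxin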 (primary screen)
Cell system: RAW264.7 G9 macrophages from mouse bearing reporters for p65 (GFP) and the Tnf promoter (mCherry)
Knock-down reagent: siRNA pool against mouse genes, 100 nM
Time to read-out: 16 h of LPS stimulation, after 2 days of siRNA transfection
Treatment: bacterial lipopolysaccharide (Salmonella minnesota R595), 10 ng/ml
Measurement: 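Nuclear mCherry signal of the Tnf promoter reporter measured by imaging after background removal, scaled to each plate median and turned into robust z-scores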
Scale: Tnf reporter robust z-score: higher = stronger Tnf promoter reporter signal after LPS; Tnf reporter intensity: higher = stronger Tnf promoter reporter signal
Active means: 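a well counts as active at a score of -1.3 or below (Tlr4 knock-down control median) or above 3 (raised signal); controls and wells holding fewer than 50 cells are excluded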
Meaning of the calls: active = Tnf reporter clearly lowered or raised; inactive = no clear change in Tnf reporter
Shown is a random part of about 17,000 reagents. In the full data, about 1,110 (6.6%) got an active call. 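Active means lowered or raised reporter signal; replicate intensities are raw and not normalised per plate.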 Reagents against one gene are numbered here.

| gene knocked down | pool no. | Tnf reporter robust z-score | fewer than 50 cells in well | Tnf reporter intensity, replicate 1 | Tnf reporter intensity, replicate 2 | activity call |
| --- | --- | --- | --- | --- | --- | --- |
| Flywch2 | 1 | – | fewer than 50 cells per well; well left out of calls | 123 | 31.1 | inactive |
| Cst8 | 1 | 2 | enough cells in well | 299 | 306 | inactive |
| Galnt6 | 1 | -1.54 | enough cells in well | 113 | 69.7 | active |
| Cdc23 | 1 | 0.27 | enough cells in well | 249 | 245 | inactive |
| Mtor | 1 | – | fewer than 50 cells per well; well left out of calls | 124 | 70.5 | inactive |
| Sult1d1 | 1 | -0.16 | enough cells in well | 61.3 | 86.9 | inactive |
| Fbxo21 | 1 | -1.56 | enough cells in well | 117 | 101 | active |
| Bad | 1 | 0.3 | enough cells in well | 167 | 168 | inactive |
| Chd1l | 1 | -0.46 | enough cells in well | 88.8 | 217 | inactive |
| Ccp110 | 1 | 1.39 | enough cells in well | 117 | 222 | inactive |
| Entpd6 | 1 | 2.48 | enough cells in well | 433 | 265 | inactive |
| Timm44 | 1 | 1.78 | enough cells in well | 160 | 173 | inactive |
| Dppa1 | 1 | – | fewer than 50 cells per well; well left out of calls | 149 | 120 | inactive |
| Reep2 | 1 | 0.54 | enough cells in well | 258 | 229 | inactive |
| Ssmem1 | 1 | -0.42 | enough cells in well | 185 | 37.5 | inactive |
| Foxj2 | 1 | -0.21 | enough cells in well | 332 | 134 | inactive |
| Slc60a2c | 1 | 0.8 | enough cells in well | 269 | 256 | inactive |
| Sntg2 | 1 | 0.01 | enough cells in well | 61.1 | 92.5 | inactive |
| Tln1 | 1 | 0.92 | enough cells in well | 136 | 138 | inactive |
| Supt5 | 1 | -1.71 | enough cells in well | 130 | 80 | active |
| Limd2 | 1 | 3.43 | enough cells in well | 437 | 202 | active |
| Rpl3 | 1 | – | fewer than 50 cells per well; well left out of calls | 17.6 | 16.4 | inactive |
| Sytl3 | 1 | -0.72 | enough cells in well | 90.1 | 77.3 | inactive |
| Tomm34 | 1 | – | fewer than 50 cells per well; well left out of calls | 39 | 50.4 | inactive |
| Ung | 1 | -0.16 | enough cells in well | 232 | 200 | inactive |
| Dsp | 1 | 0.35 | enough cells in well | 254 | 132 | inactive |
| Rassf4 | 1 | 0.45 | enough cells in well | 153 | 145 | inactive |
| Elovl3 | 1 | -0.12 | enough cells in well | 198 | 98.3 | inactive |
| Hint1 | 1 | 0.11 | enough cells in well | 239 | 203 | inactive |
| Afg3l1 | 1 | 0.68 | enough cells in well | 256 | 228 | inactive |
| Sox11 | 1 | 4.4 | enough cells in well | 271 | 226 | active |
| Pcsk6 | 1 | 1.17 | enough cells in well | 303 | 279 | inactive |
| Nhsl1 | 1 | -1.09 | enough cells in well | 125 | 103 | inactive |

12 successive records already listed, for reference:
| gene knocked down | pool no. | Tnf reporter robust z-score | fewer than 50 cells in well | Tnf reporter intensity, replicate 1 | Tnf reporter intensity, replicate 2 | activity call |
| --- | --- | --- | --- | --- | --- | --- |
| Supt5 | 1 | -1.71 | enough cells in well | 130 | 80 | active |
| Limd2 | 1 | 3.43 | enough cells in well | 437 | 202 | active |
| Rpl3 | 1 | – | fewer than 50 cells per well; well left out of calls | 17.6 | 16.4 | inactive |
| Sytl3 | 1 | -0.72 | enough cells in well | 90.1 | 77.3 | inactive |
| Tomm34 | 1 | – | fewer than 50 cells per well; well left out of calls | 39 | 50.4 | inactive |
| Ung | 1 | -0.16 | enough cells in well | 232 | 200 | inactive |
| Dsp | 1 | 0.35 | enough cells in well | 254 | 132 | inactive |
| Rassf4 | 1 | 0.45 | enough cells in well | 153 | 145 | inactive |
| Elovl3 | 1 | -0.12 | enough cells in well | 198 | 98.3 | inactive |
| Hint1 | 1 | 0.11 | enough cells in well | 239 | 203 | inactive |
| Afg3l1 | 1 | 0.68 | enough cells in well | 256 | 228 | inactive |
| Sox11 | 1 | 4.4 | enough cells in well | 271 | 226 | active |

The results go on.
| gene knocked down | pool no. | Tnf reporter robust z-score | fewer than 50 cells in well | Tnf reporter intensity, replicate 1 | Tnf reporter intensity, replicate 2 | activity call |
| --- | --- | --- | --- | --- | --- | --- |
| Ren2 | 1 | -1.33 | enough cells in well | 193 | 98.7 | active |
| Eps8l3 | 1 | 1.23 | enough cells in well | 326 | 209 | inactive |
| Osbp | 1 | 0.37 | enough cells in well | 233 | 234 | inactive |
| Tmeff1 | 1 | – | fewer than 50 cells per well; well left out of calls | 83.8 | 66.3 | inactive |
| Pgp | 1 | 3.5 | enough cells in well | 392 | 215 | active |
| Zfp459 | 1 | -0.43 | enough cells in well | 102 | 153 | inactive |
| Borcs7 | 1 | 0.92 | enough cells in well | 243 | 63.4 | inactive |
| Itfg1 | 1 | 2.46 | enough cells in well | 362 | 281 | inactive |
| Pisd | 1 | -1.03 | enough cells in well | 127 | 113 | inactive |
| Pcdhb21 | 1 | 0.7 | enough cells in well | 172 | 174 | inactive |
| Foxd1 | 1 | 0.27 | enough cells in well | 283 | 254 | inactive |
| Rtraf | 1 | -0.92 | enough cells in well | 163 | 51.2 | inactive |
| Csf3 | 1 | 0.37 | enough cells in well | 253 | 239 | inactive |
| Tirap | 1 | -1.18 | enough cells in well | 130 | 87 | inactive |
| Ackr5 | 1 | 0.24 | enough cells in well | 180 | 412 | inactive |
| Ccdc181 | 1 | – | fewer than 50 cells per well; well left out of calls | 258 | 85.8 | inactive |
| Skap1 | 1 | 1.49 | enough cells in well | 325 | 213 | inactive |
| Gnpda1 | 1 | 0.11 | enough cells in well | 263 | 181 | inactive |
| Rassf2 | 1 | -0.03 | enough cells in well | 305 | 203 | inactive |
| Kcna5 | 1 | 0.13 | enough cells in well | 253 | 155 | inactive |
| Xpnpep3 | 1 | -0.4 | enough cells in well | 207 | 190 | inactive |
| Rab21 | 1 | -0.55 | enough cells in well | 265 | 158 | inactive |
| Cyp4a31 | 1 | -1.12 | enough cells in well | 130 | 81.3 | inactive |
| Kif26b | 1 | -0.61 | enough cells in well | 160 | 119 | inactive |
| Kif26b | 2 | – | fewer than 50 cells per well; well left out of calls | 294 | 215 | inactive |
| Dhdds | 1 | -0.21 | enough cells in well | 224 | 111 | inactive |
| Mlf1 | 1 | 0.2 | enough cells in well | 255 | 241 | inactive |
| Ubqlnl | 1 | – | fewer than 50 cells per well; well left out of calls | 143 | 54.6 | inactive |
| Prpf39 | 1 | -1.59 | enough cells in well | 61.9 | 57.9 | active |
| Or5p72 | 1 | 0.56 | enough cells in well | 109 | 150 | inactive |
| Trip13 | 1 | -0.23 | enough cells in well | 206 | 220 | inactive |
| 9630013D21Rik | 1 | – | fewer than 50 cells per well; well left out of calls | 135 | 90.2 | inactive |
| Gipc3 | 1 | 1 | enough cells in well | 139 | 203 | inactive |
| Liph | 1 | -1.26 | enough cells in well | 108 | 85.5 | inactive |
| Usp28 | 1 | 0.45 | enough cells in well | 170 | 75.9 | inactive |
| Rtel1 | 1 | -1.17 | enough cells in well | 85.1 | 95.6 | inactive |
| Anxa1 | 1 | 0.87 | enough cells in well | 214 | 224 | inactive |
| Klk9 | 1 | – | fewer than 50 cells per well; well left out of calls | 193 | 90.2 | inactive |
| Erich2 | 1 | – | fewer than 50 cells per well; well left out of calls | 155 | 50.1 | inactive |
| Eif2ak3 | 1 | -0.83 | enough cells in well | 132 | 122 | inactive |
| Dpy19l3 | 1 | 2.17 | enough cells in well | 300 | 340 | inactive |
| Mpl | 1 | -0.41 | enough cells in well | 203 | 197 | inactive |
